Source: patent EP0523013B1, “Use of benzimidazoline-2-oxo-1-carboxylic acid derivatives in the treatment of organic mental diseases” (BOEHRINGER INGELHEIM ITALIA S.p.A., priority 1991, dated 1993)

Tested on: scopolamine-induced impairment of passive avoidance response
Experiment: passive avoidance test, scopolamine-induced impairment
Design: species or system Male Sprague Dawley rats
Details: rat, in vivo
Method: Male Sprague Dawley rats weighing 175-200 g were used. The animals were kept in a regulated environment (20 ± 1°C, 50-55% humidity and 12 hours light-dark cycle, light on at 7.00 a.m.) and maintained with standard pellet diet. The apparatus used for the passive avoidance test was composed of a dark compartment (30x30x30 cm) with a grid floor and a compartment (30x30x30 cm) illuminated from above by a 20 W daylight lamp, the 2 compartments being separated by a guillotine-type door (10x8 cm). Scrambled electric shocks were delivered to the grid floor by an isolated stimulator.
Rats were divided in groups of 10 animals. • a) Training: each rat was placed gently in the lighted compartment and 10 sec later the door was opened. As soon as the rat had moved into the dark compartment and the door had been shut, a 1.6 mA foot-shock was applied for 1 sec. The rat was immediately removed from the apparatus and returned to the home cage. • b) Retention: the retention test was carried out 24 hours later by an observer unaware of the given treatment. Each rat was placed into the lighted compartment again and the step-through latency was recorded. […] The experimental data were evaluated statistically by means of Mann Whitney-U test, comparing all treatments, including controls, with scopolamine group.

## CN1[C@@H]2C[C@@H](OC(=O)[C@H](CO)c3ccccc3)C[C@H]1[C@@H]1O[C@@H]12 [Scopolamine, scopolamine, reference compound]
  step-through latency in the retention test: significantly decreased
